Entries after “also recorded” stand apart in the source; their conditions may differ. At least one compound was matched to its structure with a doubt left.
Experiments:
P23H rat RGCs = experiment: Light sensitivity (intensity-response functions) of RGCs in isolated P23H rat retina, extracellular recording; type: cell-based; conditions: one cell per retina
Method: P23H-line 1 homozygous rats (age range 22-37 weeks) were used. Breeding pairs of P23H-line 1 homozygous rats were generously donated by Dr. Matthew LaVail (University of California San Francisco, CA). The room light was kept on a 12 hr light/dark cycle using standard fluorescent lighting. During the light cycle, the illumination at the level of the cages was 100-200 lux.
On the day of an experiment, a rat was euthanized with sodium pentobarbital (150 mg/kg, i.p.), and the eyes were removed and hemisected under normal room light. After removal of the vitreous humour from each eye, one eyecup was transferred to a holding vessel containing bicarbonate-buffered Ames medium (Sigma-Aldrich), which was continuously gassed at room temperature with 5% CO2/95% O2. […]
(§1) Electrical Recording: Action potentials (spikes) were recorded extracellularly from individual RGCs. […]
(§2) Light from a mercury arc lamp illuminated an aperture that was focused on the retina from above, through the 4× objective of the microscope. The image produced on the retina was either a 250-μm or 1.5-mm diameter spot, which was centered on the recorded RGC. […] The intensity of the unattenuated light stimulus on the retina, measured with a spectroradiometer (ILT900-R, International Light Technologies), was 8.5×10^17 photons/cm^2/s. […]

[1] = system: long-latency ON-center P23H rat RGC; experiment: Light responses of long-latency ON-center RGCs to a 250-μm spot (spike rasters, PSTHs); type: cell-based; conditions: sulpiride 12 µM, clozapine 5 μM, aripiprazole 5 μM, eticlopride 1 µM, MDL-100907 640 nM
Method: On the day of an experiment, a rat was euthanized with sodium pentobarbital (150 mg/kg, i.p.), and the eyes were removed and hemisected under normal room light. After removal of the vitreous humour from each eye, one eyecup was transferred to a holding vessel containing bicarbonate-buffered Ames medium (Sigma-Aldrich), which was continuously gassed at room temperature with 5% CO2/95% O2. The retina of the other eyecup was gently peeled from the retinal pigment epithelium/choroid and trimmed into a square of ˜12 mm^2. The retina was then placed photoreceptor side down in a small volume (0.1 ml) chamber. The chamber was mounted on a fixed-stage upright microscope (Nikon Eclipse E600FN), and the retina superfused at 1.5 ml/min with bicarbonate-buffered Ames medium supplemented with 2 mg/ml D-(+) glucose and equilibrated with 5% CO2/95% O2. […]
as §1, §2

CN1CCN(C2=Nc3cc(Cl)ccc3Nc3ccccc32)CC1 [clozapine]
number of RGCs tested whose sensitivity was increased (P23H rat RGCs): all 7 | effect on the OFF response [1]: appeared; also recorded: brought out an OFF response | effect on the long-latency ON response [1]: markedly reduced; also recorded: eliminated
